Paper PMC8565353

The chains behind the UniProt entries cited, without tags or fusion partners.
UniProt Q6P6C2: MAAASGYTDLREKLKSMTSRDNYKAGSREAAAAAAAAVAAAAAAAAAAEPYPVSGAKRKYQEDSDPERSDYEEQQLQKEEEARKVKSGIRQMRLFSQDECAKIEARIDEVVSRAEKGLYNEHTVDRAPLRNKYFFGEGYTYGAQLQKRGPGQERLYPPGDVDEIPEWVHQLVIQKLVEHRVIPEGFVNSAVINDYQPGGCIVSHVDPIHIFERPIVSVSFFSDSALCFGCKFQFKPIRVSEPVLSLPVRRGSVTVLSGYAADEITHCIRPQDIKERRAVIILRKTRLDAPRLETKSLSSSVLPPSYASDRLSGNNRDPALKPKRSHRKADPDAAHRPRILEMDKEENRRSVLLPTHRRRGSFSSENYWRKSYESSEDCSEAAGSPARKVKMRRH

Experiments:
Test in all cases: proximity labelling; BioID: BirA*-fused bait induced with 200 ng/ml dox in stable 293T cells, 50 μM biotin for 24 h, streptavidin bead purification of biotinylated proteins, LC-MS/MS; hits filtered by Limma (>4-fold, adjusted P < 0.01) and SAINT (score >0.74) against BirA* and NLS-BirA* controls
[1] = biological target: T1, METTL16, C-terminal BirA* fusion (human) (UniProt Q86W50)
T1 sequence: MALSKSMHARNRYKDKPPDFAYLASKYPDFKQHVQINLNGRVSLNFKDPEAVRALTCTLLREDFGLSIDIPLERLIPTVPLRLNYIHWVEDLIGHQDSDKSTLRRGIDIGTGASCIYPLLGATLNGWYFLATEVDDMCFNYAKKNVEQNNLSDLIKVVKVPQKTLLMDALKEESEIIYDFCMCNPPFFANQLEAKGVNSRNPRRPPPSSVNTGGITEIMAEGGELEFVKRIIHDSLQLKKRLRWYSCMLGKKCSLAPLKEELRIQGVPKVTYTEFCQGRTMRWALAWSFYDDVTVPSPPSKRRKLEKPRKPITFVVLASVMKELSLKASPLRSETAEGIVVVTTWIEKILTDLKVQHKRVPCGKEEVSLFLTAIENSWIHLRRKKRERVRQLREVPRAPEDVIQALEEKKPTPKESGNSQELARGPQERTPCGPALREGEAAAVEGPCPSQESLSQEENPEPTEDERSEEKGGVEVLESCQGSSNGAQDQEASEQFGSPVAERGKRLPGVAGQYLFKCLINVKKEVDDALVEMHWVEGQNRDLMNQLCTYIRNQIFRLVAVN

[2] = biological target: ALKBH5, BirA* fusion (human) (UniProt Q6P6C2)
[3] = biological target: FTO, N-terminal BirA* fusion (human) (UniProt Q9C0B1)

B1: DDX47 (protein, UniProt Q9H0S4 1-455)
chain: MAAPEEHDSPTEASQPIVEEEETKTFKDLGVTDVLCEACDQLGWTKPTKIQIEAIPLALQGRDIIGLAETGSGKTGAFALPILNALLETPQRLFALVLTPTRELAFQISEQFEALGSSIGVQSAVIVGGIDSMSQSLALAKKPHIIIATPGRLIDHLENTKGFNLRALKYLVMDEADRILNMDFETEVDKILKVIPRDRKTFLFSATMTKKVQKLQRAALKNPVKCAVSSKYQTVEKLQQYYIFIPSKFKDTYLVYILNELAGNSFMIFCSTCNNTQRTALLLRNLGFTAIPLHGQMSQSKRLGSLNKFKAKARSILLATDVASRGLDIPHVDVVVNFDIPTHSKDYIHRVGRTARAGRSGKAITFVTQYDVELFQRIEHLIGKKLPGFPTQDDEVMMLTERVAEAQRFARMELREHGEKKKRSREDAGDNDDTEGAIGVRNKVAGGKMKKRKGR
binding [1]: binds

B3: RNPS1 (protein, UniProt Q15287 1-305)
chain: MDLSGVKKKSLLGVKENNKKSSTRAPSPTKRKDRSDEKSKDRSKDKGATKESSEKDRGRDKTRKRRSASSGSSSTRSRSSSTSSSGSSTSTGSSSGSSSSSASSRSGSSSTSRSSSSSSSSGSPSPSRRRHDNRRRSRSKSKPPKRDEKERKRRSPSPKPTKVHIGRLTRNVTKDHIMEIFSTYGKIKMIDMPVERMHPHLSKGYAYVEFENPDEAEKALKHMDGGQIDGQEITATAVLAPWPRPPPRRFSPPRRMLPPPPMWRRSPPRMRRRSRSPRRRSPVRRRSRSPGRRRHRSRSSSNSSR
binding [2]: binds

B5: POLDIP3 (protein, UniProt Q9BY77 1-421)
chain: MADISLDELIRKRGAAAKGRLNARPGVGGVRSRVGIQQGLLSQSTRTATFQQRFDARQKIGLSDARLKLGVKDAREKLLQKDARFRIKGKVQDAREMLNSRKQQTTVPQKPRQVADAREKISLKRSSPAAFINPPIGTVTPALKLTKTIQVPQQKAMAPLHPHPAGMRINVVNNHQAKQNLYDLDEDDDGIASVPTKQMKFAASGGFLHHMAGLSSSKLSMSKALPLTKVVQNDAYTAPALPSSIRTKALTNMSRTLVNKEEPPKELPAAEPVLSPLEGTKMTVNNLHPRVTEEDIVELFCVCGALKRARLVHPGVAEVVFVKKDDAITAYKKYNNRCLDGQPMKCNLHMNGNVITSDQPILLRLSDSPSMKKESELPRRVNSASSSNPPAEVDPDTILKALFKSSGASVTTQPTEFKIKL
binding [2]: binds

B7: THO subunit THOC3 (protein, UniProt Q96J01 1-351)
chain: MAVPAAAMGPSALGQSGPGSMAPWCSVSSGPSRYVLGMQELFRGHSKTREFLAHSAKVHSVAWSCDGRRLASGSFDKTASVFLLEKDRLVKENNYRGHGDSVDQLCWHPSNPDLFVTASGDKTIRIWDVRTTKCIATVNTKGENINICWSPDGQTIAVGNKDDVVTFIDAKTHRSKAEEQFKFEVNEISWNNDNNMFFLTNGNGCINILSYPELKPVQSINAHPSNCICIKFDPMGKYFATGSADALVSLWDVDELVCVRCFSRLDWPVRTLSFSHDGKMLASASEDHFIDIAEVETGDKLWEVQCESPTFTVAWHPKRPLLAFACDDKDGKYDSSREAGTVKLFGLPNDS
binding [2]: binds

B8: SARNP (protein, UniProt P82979 1-210)
chain: MATETVELHKLKLAELKQECLARGLETKGIKQDLIHRLQAYLEEHAEEEANEEDVLGDETEEEETKPIELPVKEEEPPEKTVDVAAEKKVVKITSEIPQTERMQKRAERFNVPVSLESKKAARAARFGISSVPTKGLSSDNKPMVNLDKLKERAQRFGLNVSSISRKSEDDEKLKKRKERFGIVTSSAGTGTTEDTEAKKRKRAERFGIA
binding [2]: binds

B9: Tyrosyl DNA phosphodiesterase 2 (TDP2) (enzyme, UniProt O95551 1-362)
chain: MELGSCLEGGREAAEEEGEPEVKKRRLLCVEFASVASCDAAVAQCFLAENDWEMERALNSYFEPPVEESALERRPETISEPKTYVDLTNEETTDSTTSKISPSEDTQQENGSMFSLITWNIDGLDLNNLSERARGVCSYLALYSPDVIFLQEVIPPYYSYLKKRSSNYEIITGHEEGYFTAIMLKKSRVKLKSQEIIPFPSTKMMRNLLCVHVNVSGNELCLMTSHLESTRGHAAERMNQLKMVLKKMQEAPESATVIFAGDTNLRDREVTRCGGLPNNIVDVWEFLGKPKHCQYTWDTQMNSNLGITAACKLRFDRIFFRAAAEEGHIIPRSLDLLGLEKLDCGRFPSDHWGLLCNLDIIL
binding [3]: binds

B10: LARP7 (protein, UniProt Q4G0J3 1-582)
chain: METESGNQEKVMEEESTEKKKEVEKKKRSRVKQVLADIAKQVDFWFGDANLHKDRFLREQIEKSRDGYVDISLLVSFNKMKKLTTDGKLIARALRSSAVVELDLEGTRIRRKKPLGERPKDEDERTVYVELLPKNVNHSWIERVFGKCGNVVYISIPHYKSTGDPKGFAFVEFETKEQAAKAIEFLNNPPEEAPRKPGIFPKTVKNKPIPALRVVEEKKKKKKKKGRMKKEDNIQAKEENMDTSNTSISKMKRSRPTSEGSDIESTEPQKQCSKKKKKRDRVEASSLPEVRTGKRKRSSSEDAESLAPRSKVKKIIQKDIIKEASEASKENRDIEISTEEEKDTGDLKDSSLLKTKRKHKKKHKERHKMGEEVIPLRVLSKSEWMDLKKEYLALQKASMASLKKTISQIKSESEMETDSGVPQNTGMKNEKTANREECRTQEKVNATGPQFVSGVIVKIISTEPLPGRKQVRDTLAAISEVLYVDLLEGDTECHARFKTPEDAQAVINAYTEINKKHCWKLEILSGDHEQRYWQKILVDRQAKLNQPREKKRGTEKLITKAEKIRLAKTQQASKHIRFSEYD
binding [1]: binds

B12: ADAT1 (enzyme, UniProt Q9BUB4 1-502)
chain: MWTADEIAQLCYEHYGIRLPKKGKPEPNHEWTLLAAVVKIQSPADKACDTPDKPVQVTKEVVSMGTGTKCIGQSKMRKNGDILNDSHAEVIARRSFQRYLLHQLQLAATLKEDSIFVPGTQKGVWKLRRDLIFVFFSSHTPCGDASIIPMLEFEDQPCCPVFRNWAHNSSVEASSNLEAPGNERKCEDPDSPVTKKMRLEPGTAAREVTNGAAHHQSFGKQKSGPISPGIHSCDLTVEGLATVTRIAPGSAKVIDVYRTGAKCVPGEAGDSGKPGAAFHQVGLLRVKPGRGDRTRSMSCSDKMARWNVLGCQGALLMHLLEEPIYLSAVVIGKCPYSQEAMQRALIGRCQNVSALPKGFGVQELKILQSDLLFEQSRSAVQAKRADSPGRLVPCGAAISWSAVPEQPLDVTANGFPQGTTKKTIGSLQARSQISKVELFRSFQKLLSRIARDKWPHSLRVQKLDTYQEYKEAASSYQEAWSTLRKQVFGSWIRNPPDYHQFK
binding [1]: binds

The remaining lines, values ahead:

binding [2]: binds
B2: SAP18 (protein, UniProt O00422 1-153)
chain: MAVESRVTQEEIKKEPEKPIDREKTCPLLLRVFTTNNGRHHRMDEFSRGNVPSSELQIYTWMDATLKELTSLVKEVYPEARKKGTHFNFAIVFTDVKRPGYRVKEIGSTMSGRKGTDDSMTLQSQKFQIGDYLDIAITPPNRAPPPSGRMRPY

binding [3]: no binding
B4: tRNA m^1G methyltransferase TRMT10A (enzyme, UniProt Q8TBZ6 1-339)
chain: MSSEMLPAFIETSNVDKKQGINEDQEESQKPRLGEGCEPISKRQMKKLIKQKQWEEQRELRKQKRKEKRKRKKLERQCQMEPNSDGHDRKRVRRDVVHSTLRLIIDCSFDHLMVLKDIKKLHKQIQRCYAENRRALHPVQFYLTSHGGQLKKNMDENDKGWVNWKDIHIKPEHYSELIKKEDLIYLTSDSPNILKELDESKAYVIGGLVDHNHHKGLTYKQASDYGINHAQLPLGNFVKMNSRKVLAVNHVFEIILEYLETRDWQEAFFTILPQRKGAVPTDKACESASHDNQSVRMEEGGSDSDSSEEEYSRNELDSPHEEKQDKENHTESTVNSLPH

binding [1]: binds
B6: SNRNP27 (protein, UniProt Q8WVK2 1-155)
chain: MGRSRSRSPRRERRRSRSTSRERERRRRERSRSRERDRRRSRSRSPHRRRSRSPRRHRSTSPSPSRLKERRDEEKKETKETKSKERQITEEDLEGKTEEEIEMMKLMGFASFDSTKGKKVDGSVNAYAINVSQKRKYRQYMNRKGGFNRPLDFIA

binding [1]: binds
B11: MePCE (protein, UniProt Q7L2J0 1-689)
chain: MIEMAAEKEPFLVPAPPPPLKDESGGGGGPTVPPHQEAASGELRGGTERGPGRCAPSAGSPAAAVGRESPGAAATSSSGPQAQQHRGGGPQAQSHGEARLSDPPGRAAPPDVGEERRGGGGTELGPPAPPRPRNGYQPHRPPGGGGGKRRNSCNVGGGGGGFKHPAFKRRRRVNSDCDSVLPSNFLLGGNIFDPLNLNSLLDEEVSRTLNAETPKSSPLPAKGRDPVEILIPKDITDPLSLNTCTDEGHVVLASPLKTGRKRHRHRGQHHQQQQAAGGSESHPVPPTAPLTPLLHGEGASQQPRHRGQNRDAPQPYELNTAINCRDEVVSPLPSALQGPSGSLSAPPAASVISAPPSSSSRHRKRRRTSSKSEAGARGGGQGSKEKGRGSWGGRHHHHHPLPAAGFKKQQRKFQYGNYCKYYGYRNPSCEDGRLRVLKPEWFRGRDVLDLGCNVGHLTLSIACKWGPSRMVGLDIDSRLIHSARQNIRHYLSEELRLPPQTLEGDPGAEGEEGTTTVRKRSCFPASLTASRGPIAAPQVPLDGADTSVFPNNVVFVTGNYVLDRDDLVEAQTPEYDVVLCLSLTKWVHLNWGDEGLKRMFRRIYRHLRPGGILVLEPQPWSSYGKRKTLTETIYKNYYRIQLKPEQFSSYLTSPDVGFSSYELVATPHNTSKGFQRPVYLFHKARSPSH

No constants are given. Whether binding was seen depends on the method and setting. In cells and extracts the contact can be indirect. Here binding means that the protein was enriched with, or labelled near, the bait; the list need not be complete. For part of these data: A no says only that the protein was not detected with the bait. For part of these data: Sequences can lack the tags named with a protein. One block for each binder: values may come before it.
